Results from the supplement of paper PMC10331698.
± gives the standard deviation of the averaged measurements. Most values lie at the level of the controls, where differences are scatter.

Assays:
Test in all cases: level (log10 ratio to DMSO vehicle control); higher = higher biomarker level / cell amount than vehicle control
[1] = compound: OCCCC(F)(F)C(F)(F)C(F)(F)C(F)(F)C(F)(F)C(F)(F)C(F)(F)C(F)(F)F [3-(Perfluorooctyl)propanol] (in DMSO); settings: 2200 nM
Protocol: (§1)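 BioMAP Diversity Plus panel of 12 human primary cell co-culture systems (3C, 4H, LPS, SAg, BT, BF4T, BE3C, CASM3C, HDF3CGF, KF3CT, MyoF, Mphg). Compounds were added 1 h before stimulation and left for 24 h (MyoF 48 h; BT 72 h for soluble read-outs or 6 d for IgG). Biomarkers were read by ELISA, cytotoxicity by SRB, PBMC viability and proliferation by Alamar Blue. Each well value was divided by the mean of 8 DMSO control wells on the same plate and log10 transformed; duplicate blinded samples were tested at 4 concentrations.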

[2] = compound: CNS(=O)(=O)C(F)(F)C(F)(F)C(F)(F)C(F)(F)C(F)(F)C(F)(F)C(F)(F)C(F)(F)F [N-Methylperfluorooctanesulfonamide] (in DMSO); settings: 2200 nM
Protocol: as §1

[3] = compound: FC(F)(F)COC(OCC(F)(F)F)OCC(F)(F)F [tris(Trifluoroethoxy)methane] (in DMSO); settings: 2200 nM
Protocol: as §1

[4] = compound: OCC(F)(F)OC(F)(F)C(F)(F)OC(F)(F)CO [1H,1H,8H,8H-Perfluoro-3,6-dioxaoctane-1,8-diol] (in DMSO); settings: 2200 nM
Protocol: as §1

[5] = compound: FC(F)(F)C(F)(F)C(F)(F)C(F)(F)CCI [1H,1H,2H,2H-Perfluorohexyl iodide] (in DMSO); settings: 2200 nM
Protocol: as §1

[6] = compound: O=S(=O)(O)C(F)(F)C(F)(F)C(F)(F)C(F)(F)F [Perfluorobutanesulfonic acid] (in DMSO)
Protocol: as §1

[7] = compound: FC(F)(F)C(F)(F)CNCC(F)(F)C(F)(F)F [Bis(1H,1H-perfluoropropyl)amine] (in DMSO); settings: 2200 nM
Protocol: as §1

[8] = compound: O=C(O)C(F)(OC(F)(F)C(F)(OC(F)(F)C(F)(OC(F)(F)C(F)(F)C(F)(F)F)C(F)(F)F)C(F)(F)F)C(F)(F)F [Perfluoro-(2,5,8-trimethyl-3,6,9-trioxadodecanoic)acid] (in DMSO); settings: 370 nM
Protocol: as §1

[9] = compound: OCC(F)(F)C(F)(F)C(F)(F)C(F)(F)C(F)(F)C(F)(F)CO [1H,1H,8H,8H-Perfluorooctane-1,8-diol] (in DMSO); settings: 2200 nM
Protocol: as §1

Perfluorohexanoic acid = compound: O=C(O)C(F)(F)C(F)(F)C(F)(F)C(F)(F)C(F)(F)F [Perfluorohexanoic acid] (in DMSO)
Protocol: as §1

[10] = compound: OCC(F)(F)C(F)(F)C(F)(F)C(F)F [1H,1H,5H-Perfluoropentanol] (in DMSO); settings: 2200 nM
Protocol: as §1

[11] = compound: O=C(O)C(F)(F)C(F)(F)C(F)(F)OC(F)(C(F)(F)F)C(F)(F)F [Perfluoro-4-isopropoxybutanoic acid] (in DMSO); settings: 2200 nM
Protocol: as §1

[12] = compound: C=C(C)C(=O)OCCC(F)(F)C(F)(F)C(F)(F)C(F)(F)C(F)(F)C(F)(F)F [6:2 Fluorotelomer methacrylate] (in DMSO); settings: 2200 nM
Protocol: as §1

[13] = compound: OCC(F)(F)C(F)(F)C(F)(F)C(F)(F)C(F)(F)C(F)(F)F [6:1 Fluorotelomer alcohol] (in DMSO); settings: 2200 nM
Protocol: as §1

[14] = compound: O=C(O)C(F)(OC(F)(F)C(F)(F)C(F)(F)F)C(F)(F)F [Ammonium perfluoro-2-methyl-3-oxahexanoate] (in Water)
Protocol: as §1

[15] = compound: O=C(O)CCC(F)(F)C(F)(F)C(F)(F)F [3:3 Fluorotelomer carboxylic acid] (in DMSO); settings: 2200 nM
Protocol: as §1

Hexafluoroglutaric acid = compound: O=C(O)C(F)(F)C(F)(F)C(F)(F)C(=O)O [Hexafluoroglutaric acid] (in DMSO)
Protocol: as §1

Test System | level (log10) [1] | level (log10) [2] | level (log10) [3] | level (log10) [4] | level (log10) [5] | level (log10) ([6]; 2200 nM) | level (log10) ([6]; 6700 nM) | level (log10) ([6]; 20000 nM) | level (log10) ([6]; 60000 nM) | level (log10) [7] | level (log10) [8] | level (log10) [9] | level (log10) (Perfluorohexanoic acid; 2200 nM) | level (log10) (Perfluorohexanoic acid; 6700 nM) | level (log10) (Perfluorohexanoic acid; 20000 nM) | level (log10) (Perfluorohexanoic acid; 60000 nM) | level (log10) [10] | level (log10) [11] | level (log10) [12] | level (log10) [13] | level (log10) ([14]; 2200 nM) | level (log10) ([14]; 6700 nM) | level (log10) ([14]; 20000 nM) | level (log10) ([14]; 60000 nM) | level (log10) [15] | level (log10) (Hexafluoroglutaric acid; 2200 nM) | level (log10) (Hexafluoroglutaric acid; 6700 nM) | level (log10) (Hexafluoroglutaric acid; 20000 nM) | level (log10) (Hexafluoroglutaric acid; 60000 nM)
BE3C:CXCL9/MIG | -0.006 ± 0.023 | 0.024 ± 0.0042 | 0.002 ± 0.018 | 0.0025 ± 0.0092 | 0.018 ± 0.011 | 0.009 ± 0.018 | 0.01 ± 0.034 | 0.0025 ± 0.023 | 0.013 ± 0.0057 | -0.002 ± 0.021 | 0.0065 ± 0.00071 | -0.0055 ± 0.0021 | 0.004 ± 0.014 | 0.005 ± 0.0014 | 0 ± 0.0099 | 0.001 ± 0.0099 | 0.006 ± 0.0085 | 0.0005 ± 0.026 | 0.022 ± 0.04 | 0.002 ± 0.0014 | 0.0015 ± 0.005 | 0.0065 ± 0.013 | 0.0045 ± 0.005 | 0 ± 0.0042 | 0.008 ± 0.0099 | -0.0065 ± 0.021 | 0.001 ± 0.0042 | 0.008 | -0.0055 ± 0.0021
BE3C:CXCL10/IP-10 | 0.0075 ± 0.0064 | -0.016 ± 0.0071 | -0.0065 ± 0.015 | 0.0135 ± 0.00071 | 0.01 ± 0.0042 | 0.0065 ± 0.035 | 0.009 ± 0.038 | -0.0015 ± 0.028 | 0.0005 ± 0.018 | -0.0075 ± 0.046 | 0.043 ± 0.041 | 0 ± 0.0028 | 0.0265 ± 0.037 | 0.0095 ± 0.018 | 0.0125 ± 0.0092 | 0.0245 ± 0.011 | 0.0015 ± 0.021 | 0.006 ± 0.023 | 0.029 ± 0.073 | 0.031 ± 0.021 | -0.0105 ± 0.011 | -0.0095 ± 0.013 | -0.001 ± 0.0042 | 0.0115 ± 0.0092 | 0.0055 ± 0.0078 | -0.003 ± 0.016 | -0.001 ± 0.0042 | -0.0085 ± 0.00071 | 0.0015 ± 0.023
BE3C:CXCL11/I-TAC | -0.004 ± 0.0028 | -0.0155 ± 0.012 | -0.003 ± 0.0014 | 0.011 ± 0.0057 | -0.0035 ± 0.016 | 0.001 ± 0.013 | 0.0115 ± 0.012 | 0.0065 ± 0.00071 | 0.007 ± 0.0071 | -0.0015 ± 0.018 | 0.016 ± 0.035 | -0.006 ± 0.0014 | 0.011 ± 0.0085 | 0.008 ± 0.014 | 0.0065 ± 0.0064 | 0.027 ± 0.0042 | 0.013 ± 0.0028 | -0.0055 ± 0.015 | 0.0005 ± 0.0064 | 0.0255 ± 0.011 | 0.005 ± 0.0071 | -0.011 ± 0.0057 | 0.0115 ± 0.0021 | -0.0045 ± 0.0078 | 0.0055 ± 0.026 | -0.0095 ± 0.013 | 0.0045 ± 0.028 | -0.002 ± 0.024 | 0.0045 ± 0.013
BE3C:EGFR | -0.015 ± 0.024 | 0.0195 ± 0.018 | 0.0245 ± 0.032 | -0.014 ± 0.011 | 0.043 ± 0.023 | -0.007 ± 0.035 | -0.0045 ± 0.021 | 0 ± 0.018 | 0.0005 ± 0.0092 | -0.0035 ± 0.025 | 0.015 ± 0.016 | -0.0185 ± 0.0092 | -0.004 | 0.003 ± 0.0014 | -0.005 ± 0.0028 | 0.0025 ± 0.015 | -0.001 ± 0.016 | 0.018 ± 0.064 | 0.036 ± 0.062 | 0.0135 ± 0.019 | -0.001 ± 0.057 | -0.016 ± 0.023 | -0.009 ± 0.0085 | 0.005 ± 0.0057 | -0.0005 ± 0.011 | -0.0035 ± 0.015 | -0.0055 ± 0.0035 | -0.0175 ± 0.005 | 0.0025 ± 0.012
